Experimental findings from paper PMC12877406 are described below.

The chains behind the UniProt entries cited, without tags or fusion partners. Residues count along the entry.
UniProt P46531, residues 19-2555: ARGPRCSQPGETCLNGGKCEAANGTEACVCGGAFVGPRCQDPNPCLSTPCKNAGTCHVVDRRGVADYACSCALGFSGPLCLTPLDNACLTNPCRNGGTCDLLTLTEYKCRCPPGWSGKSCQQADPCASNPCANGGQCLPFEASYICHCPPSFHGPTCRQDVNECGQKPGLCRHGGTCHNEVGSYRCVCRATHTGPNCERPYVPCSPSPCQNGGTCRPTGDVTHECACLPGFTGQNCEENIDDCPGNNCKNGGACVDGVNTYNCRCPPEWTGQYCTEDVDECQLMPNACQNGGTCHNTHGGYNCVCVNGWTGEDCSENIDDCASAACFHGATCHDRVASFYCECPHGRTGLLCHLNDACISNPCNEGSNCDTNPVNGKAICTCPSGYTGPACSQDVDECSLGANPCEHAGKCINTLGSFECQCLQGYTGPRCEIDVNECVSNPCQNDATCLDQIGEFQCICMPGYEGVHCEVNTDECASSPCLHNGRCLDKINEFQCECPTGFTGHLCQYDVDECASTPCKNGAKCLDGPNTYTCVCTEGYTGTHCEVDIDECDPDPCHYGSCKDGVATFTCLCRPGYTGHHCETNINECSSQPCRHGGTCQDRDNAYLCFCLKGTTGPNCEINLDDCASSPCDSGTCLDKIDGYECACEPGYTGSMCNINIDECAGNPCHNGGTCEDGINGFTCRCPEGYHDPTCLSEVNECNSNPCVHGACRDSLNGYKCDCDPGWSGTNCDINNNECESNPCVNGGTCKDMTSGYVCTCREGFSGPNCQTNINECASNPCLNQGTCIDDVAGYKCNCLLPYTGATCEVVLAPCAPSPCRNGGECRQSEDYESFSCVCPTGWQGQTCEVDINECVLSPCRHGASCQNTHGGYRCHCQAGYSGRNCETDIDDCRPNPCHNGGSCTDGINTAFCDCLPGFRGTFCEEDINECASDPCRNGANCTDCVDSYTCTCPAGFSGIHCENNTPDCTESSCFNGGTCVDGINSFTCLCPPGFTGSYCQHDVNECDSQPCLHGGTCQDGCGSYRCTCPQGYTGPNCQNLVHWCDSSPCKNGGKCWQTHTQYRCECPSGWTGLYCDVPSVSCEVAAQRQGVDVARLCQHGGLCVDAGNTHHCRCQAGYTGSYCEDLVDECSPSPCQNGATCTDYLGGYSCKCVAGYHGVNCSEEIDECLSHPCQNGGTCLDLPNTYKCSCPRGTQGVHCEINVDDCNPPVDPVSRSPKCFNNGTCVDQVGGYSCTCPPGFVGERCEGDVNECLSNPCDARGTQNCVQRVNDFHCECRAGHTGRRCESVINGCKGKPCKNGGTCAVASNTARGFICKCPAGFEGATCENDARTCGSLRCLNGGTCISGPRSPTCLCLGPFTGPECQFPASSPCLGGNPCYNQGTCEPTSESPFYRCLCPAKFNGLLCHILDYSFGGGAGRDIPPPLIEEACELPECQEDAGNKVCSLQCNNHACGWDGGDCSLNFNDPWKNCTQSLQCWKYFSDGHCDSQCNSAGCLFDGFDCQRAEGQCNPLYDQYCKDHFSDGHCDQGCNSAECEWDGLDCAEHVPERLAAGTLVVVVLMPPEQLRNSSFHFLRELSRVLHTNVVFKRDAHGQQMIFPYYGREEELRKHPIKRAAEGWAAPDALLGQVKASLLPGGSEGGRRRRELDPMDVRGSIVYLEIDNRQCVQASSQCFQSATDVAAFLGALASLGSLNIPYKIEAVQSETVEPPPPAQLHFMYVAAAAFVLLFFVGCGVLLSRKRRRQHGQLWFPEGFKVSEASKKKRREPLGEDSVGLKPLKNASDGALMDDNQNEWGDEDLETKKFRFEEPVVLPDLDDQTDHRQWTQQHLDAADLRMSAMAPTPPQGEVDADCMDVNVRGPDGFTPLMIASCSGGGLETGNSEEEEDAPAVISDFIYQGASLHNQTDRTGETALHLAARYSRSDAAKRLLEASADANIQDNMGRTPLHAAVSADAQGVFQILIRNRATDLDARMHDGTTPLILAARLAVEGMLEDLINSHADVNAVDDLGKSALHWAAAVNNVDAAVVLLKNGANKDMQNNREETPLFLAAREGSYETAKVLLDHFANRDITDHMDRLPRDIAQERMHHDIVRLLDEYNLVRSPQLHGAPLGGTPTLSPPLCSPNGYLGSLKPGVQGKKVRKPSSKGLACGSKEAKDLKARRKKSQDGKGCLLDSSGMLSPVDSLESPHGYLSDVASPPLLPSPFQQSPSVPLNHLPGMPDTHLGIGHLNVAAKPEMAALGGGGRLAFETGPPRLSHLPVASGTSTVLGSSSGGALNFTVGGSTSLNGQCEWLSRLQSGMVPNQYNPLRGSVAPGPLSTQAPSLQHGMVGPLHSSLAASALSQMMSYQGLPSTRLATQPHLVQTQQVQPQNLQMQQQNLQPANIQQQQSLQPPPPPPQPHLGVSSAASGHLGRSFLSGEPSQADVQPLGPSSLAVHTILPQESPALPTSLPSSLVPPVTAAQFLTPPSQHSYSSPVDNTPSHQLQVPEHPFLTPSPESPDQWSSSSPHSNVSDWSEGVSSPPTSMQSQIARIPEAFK
UniProt P07355: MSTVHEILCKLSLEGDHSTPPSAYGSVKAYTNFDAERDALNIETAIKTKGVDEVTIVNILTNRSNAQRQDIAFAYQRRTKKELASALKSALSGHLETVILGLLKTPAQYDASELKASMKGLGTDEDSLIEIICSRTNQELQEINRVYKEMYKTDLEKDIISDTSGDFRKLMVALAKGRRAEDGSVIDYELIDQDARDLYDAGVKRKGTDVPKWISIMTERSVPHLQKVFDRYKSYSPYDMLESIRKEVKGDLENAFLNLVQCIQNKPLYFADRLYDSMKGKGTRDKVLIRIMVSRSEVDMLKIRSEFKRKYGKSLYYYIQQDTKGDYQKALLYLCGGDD

The experiment has as its target Notch1 (human (endogenous in hdBECs)) (UniProt P46531). Nature of the experiment: affinity purification with mass spectrometry; immunoprecipitation of endogenous Notch1 with an anti-Notch1 ICD antibody and Protein A/G beads from hdBEC lysates (static or flow); IP lysis buffer pH 7.4, 25 mM Tris, 150 mM NaCl, 5 mM MgCl2, 1% Triton X-100; SDS-PAGE, Coomassie staining, excised bands analysed by LC-MS/MS.

No constants are given. Whether binding was seen depends on the method and setting. Binding seen in cells or lysates may run through a third protein. These calls come from enrichment with a bait or labelling near it, and not all partners need be listed.

Regarding annexin A2 (from UniProt P07355 1-339), the binding entry was “binds”.
